{"source": "patent EP4268901A2", "key": {"[1]": {"target": "cynomolgus monkey IL-2Rγc subunit (cynomolgus monkey)", "test": "competition ELISA, peptide tracer"}, "[2]": {"target": "cynomolgus monkey IL-2Rβ subunit (cynomolgus monkey)", "test": "competition ELISA, peptide tracer"}}, "note": "Results are given in words; binding and its absence hold for the method and conditions named. Binding calls can cover weak binding; strength is not graded here."}
{"binder": "GGWYPCWMAQLGELCDLDGGGGSGGVVCQDWEGVELCWQGG", "note": "[IL-2Rβγc ligand having SEQ ID NO: 1263]", "values": [{"measurement": "binding", "setting": "[1]", "value": "binds"}]}
{"binder": "IL-2Rβγc ligand having SEQ ID NO: 4171 (peptide) peptide: GGGELLVDCFKVKVGELCDLFFGPAPAPAPAPAPAPAPAGVVCQDWEGVELCWQGG", "values": [{"measurement": "binding", "setting": "[1]", "value": "binds"}, {"measurement": "binding", "setting": "[2]", "value": "binds"}]}
